No constants are given. Whether binding was seen depends on the method and setting. Some binding calls cover weakened binding; strength is not graded here.
Target: 抗体41S-2の軽鎖(41S-2-L)
Assay: ELISA screening of hybridomas

binding: binds
B1: i41-7完全抗体 (antibody, V domains shown)
VH: EIQLQQSGPELVRPGASVKVSCKASGYSFTNSIMYWVRQSHGKSLEWIGYIDPYNGGTSYNQKFKGKATLTVDKSSSTAFMHLNSLTSEDSAVYFCARFIVVVADVMDYWGQGTSVTVSS
VL: DIVMTQSHKFMSTSVGDRVSITCKASQDVSTAVAWYQQKPGQSPKLLIYWASTRHTEVPDRFTGSGSGTDYTLTISSVQAEDLALYYCQQHYNTPLTFGAGTKLELKR

From JP2010011840A
